The target in the test is EYFP-tagged Abi1 mutant lacking proline-rich domain (UniProt Q8IZP0). The test can be described thus: co-IP; EYFP-tagged FL Abi1 or ∆PP cotransfected into cells with Flag-Pfn-1; cell extracts immunoprecipitated with GFP antibody and blotted with GFP antibody and Flag antibody.

By UniProt entry, the sequences of proteins in these tests, tags left out. Where a name states a change or a piece, a line headed by the entry shows the natural chain unless it says otherwise.
UniProt Q8IZP0: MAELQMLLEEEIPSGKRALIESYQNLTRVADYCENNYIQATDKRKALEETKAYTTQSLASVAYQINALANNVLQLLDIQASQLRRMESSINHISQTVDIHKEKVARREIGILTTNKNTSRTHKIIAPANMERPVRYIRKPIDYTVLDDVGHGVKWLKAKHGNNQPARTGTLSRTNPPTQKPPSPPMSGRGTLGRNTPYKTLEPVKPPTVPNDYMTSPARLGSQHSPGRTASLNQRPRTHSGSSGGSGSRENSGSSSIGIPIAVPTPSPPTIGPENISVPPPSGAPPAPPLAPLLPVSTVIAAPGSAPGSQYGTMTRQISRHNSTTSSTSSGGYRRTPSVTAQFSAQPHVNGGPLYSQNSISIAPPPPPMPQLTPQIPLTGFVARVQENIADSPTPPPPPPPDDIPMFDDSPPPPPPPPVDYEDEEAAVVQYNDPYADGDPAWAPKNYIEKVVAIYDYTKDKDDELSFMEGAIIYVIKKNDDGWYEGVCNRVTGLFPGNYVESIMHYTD
UniProt P07737: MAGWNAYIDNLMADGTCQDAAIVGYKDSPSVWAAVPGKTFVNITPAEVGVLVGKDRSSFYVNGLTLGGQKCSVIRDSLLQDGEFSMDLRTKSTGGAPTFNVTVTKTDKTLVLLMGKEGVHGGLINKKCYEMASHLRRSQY

Results are given in words; binding and its absence hold for the method and conditions named. Binding seen in cells or lysates may run through a third protein.

Take “Flag-Pfn-1 (profilin-1) (from UniProt P07737 1-140)”: the binding entry was “no binding”.

The values are drawn from PMC7326921.
